# The inconclusive results got no clear call from the source; some entries with a clear call stand among them for comparison. Active and inactive are the calls of the source.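 How the source made its calls: active means viability loss with half-maximal concentration at most twice the top valid dose, at 8, 24 and 48 hours; inconclusive means timepoint results disagree; inactive means inactive at all three timepoints.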
# Assay: SNB-75 astrocytoma cell viability loss, late-stage follow-up, mechanism study for HRAS target identification, CellTiter-Glo ATP luminescence, several timepoints, dry powder (AID 720624)
# Settings: SNB-75 viability, 8-48 h; at 35 µM (top of the series)
row,Compound,"activity change, negative = less viable"
1,CCC(=O)N(c1ccc(OC)c(Cl)c1)C(C(=O)NCCc1ccccc1)c1cccs1 (configuration not stated),inconclusive: -2.35%
2,Cc1onc(C(=O)N2CCN(C(c3ccncc3)c3ccncc3)CC2)c1[N+](=O)[O-],inactive: 7.82%

# Reference: PubChem BioAssay AID720624 (Broad Institute, 2013)
